# PubChem BioAssay AID1259254 – NCATS, 2017
# Aim: 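Finding genes that stop cells copying their DNA twice in one cycle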 (primary screen)
# System: human HCT116 colorectal cancer cells
# Reagent: single siRNA against human genes
# Time to read-out: 3 days
# Measured: 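Imaged Hoechst DNA stain sorts each cell into a cycle phase by DNA amount; per plate, G2 fraction set to 0% for non-targeting and 100% for GMNN siRNA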
# Reading the numbers: G2 robust z-score and G2 cells, % of GMNN control: higher = more G2 cells, more excess DNA replication; raw share of cells in G2: higher = larger share of cells with G2 DNA content
# Rule for the call: 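An siRNA counts as active if its G2 robust z-score lies at least 5 MADs above the screen median; here such calls match roughly 38% of GMNN control or more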
# This is an unselected part of about 59,000 reagents tested. In the full data, about 1,550 (2.6%) were called active. 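G2 share is only a proxy for re-replication; each gene was hit by three separate siRNAs, and active genes were retested.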 The raw values are shown without normalisation. Entries without a mark were called inactive. The numbers tell different reagents against one gene apart. No sequences are given here. The record does not give: the amount of reagent.
gene,siRNA no.,G2 robust z-score,"G2 cells, % of GMNN control",raw share of cells in G2 (%)
HNRNPA1L2 (heterogeneous nuclear ribonucleoprotein A1 like 2),1,0.671,7.69,9.62
HNRNPA1L2 (heterogeneous nuclear ribonucleoprotein A1 like 2),2,3.29,26.1,14.3
HNRNPA1L2 (heterogeneous nuclear ribonucleoprotein A1 like 2),3,1.15,11.1,9.35
OLR1 (oxidized low density lipoprotein receptor 1),1,-0.938,-3.63,1.96
OLR1 (oxidized low density lipoprotein receptor 1),2,-1.3,-6.2,2.86
OLR1 (oxidized low density lipoprotein receptor 1),3,-0.0295,2.76,5.87
ZNF710 (zinc finger protein 710),1,1.3,12.1,7.25
ZNF710 (zinc finger protein 710),2,0.149,4.01,4.56
ZNF710 (zinc finger protein 710),3,-1.27,-5.95,1.44
TOP1 (DNA topoisomerase I),1,-0.197,1.58,6.27
TOP1 (DNA topoisomerase I),2,-0.818,-2.79,3.56
TOP1 (DNA topoisomerase I),3,1.14,11,8.36
OAF (out at first homolog),1,-0.386,0.25,3.67
OAF (out at first homolog),2,0.979,9.85,6.5
OAF (out at first homolog),3,-0.828,-2.86,2.28
ACAA2 (acetyl-CoA acyltransferase 2),1,-1.05,-4.41,4.74
ACAA2 (acetyl-CoA acyltransferase 2),2,2.25,18.8,13.9
ACAA2 (acetyl-CoA acyltransferase 2),3,-0.436,-0.103,3.81
SPATA31D1 (SPATA31 subfamily D member 1),1,0.598,7.17,6.23
SPATA31D1 (SPATA31 subfamily D member 1),2,0.267,4.85,5.51
SPATA31D1 (SPATA31 subfamily D member 1),3,-0.119,2.13,5.55
OPRPN (opiorphin prepropeptide),1,-0.0583,2.56,5.35
OPRPN (opiorphin prepropeptide),2,2.63,21.5,14.7
OPRPN (opiorphin prepropeptide),3,2.82,22.8,10.3
TTC23L (tetratricopeptide repeat domain 23 like),1,3.13,25,12.5
TTC23L (tetratricopeptide repeat domain 23 like),2,-0.334,0.62,3.17
TTC23L (tetratricopeptide repeat domain 23 like),3,3.48,27.4,11.4

Ordered by “G2 robust z-score” (lowest first): some entries from above
gene,siRNA no.,G2 robust z-score,"G2 cells, % of GMNN control",raw share of cells in G2 (%)
OLR1 (oxidized low density lipoprotein receptor 1),2,-1.3,-6.2,2.86
OLR1 (oxidized low density lipoprotein receptor 1),1,-0.938,-3.63,1.96
OLR1 (oxidized low density lipoprotein receptor 1),3,-0.0295,2.76,5.87
HNRNPA1L2 (heterogeneous nuclear ribonucleoprotein A1 like 2),3,1.15,11.1,9.35

Further entries follow:
gene,siRNA no.,G2 robust z-score,"G2 cells, % of GMNN control",raw share of cells in G2 (%)
TESK1 (testis associated actin remodelling kinase 1),1,-1.02,-4.21,4.22
TESK1 (testis associated actin remodelling kinase 1),2,-0.68,-1.82,3.38
TESK1 (testis associated actin remodelling kinase 1),3,-1.48,-7.42,2.91
ARHGAP20 (Rho GTPase activating protein 20),1,-0.361,0.429,4.52
ARHGAP20 (Rho GTPase activating protein 20),2,-0.948,-3.7,2.69
ARHGAP20 (Rho GTPase activating protein 20),3,-1.08,-4.63,1.56
CFAP46 (cilia and flagella associated protein 46),1,0.451,6.14,5.8
CFAP46 (cilia and flagella associated protein 46),2,-0.277,1.02,4.7
CFAP46 (cilia and flagella associated protein 46),3,1.58,14.1,7.86
CFAP46 (cilia and flagella associated protein 46),4,-0.435,-0.091,3.54
CFAP46 (cilia and flagella associated protein 46),5,2.37,19.6,9.86
CFAP46 (cilia and flagella associated protein 46),6,4.67,35.8,14.6
NDUFA13 (NADH:ubiquinone oxidoreductase subunit A13),1,-0.924,-3.53,4.35
NDUFA13 (NADH:ubiquinone oxidoreductase subunit A13),2,-0.387,0.246,4.33
NDUFA13 (NADH:ubiquinone oxidoreductase subunit A13),3,-0.156,1.87,4.52
"POM121L9P (POM121 transmembrane nucleoporin like 9, pseudogene)",1,-0.83,-2.87,3.46
"POM121L9P (POM121 transmembrane nucleoporin like 9, pseudogene)",2,-0.847,-2.99,2.31
"POM121L9P (POM121 transmembrane nucleoporin like 9, pseudogene)",3,-0.95,-3.72,2.43
ZNF121 (zinc finger protein 121),1,-0.518,-0.68,3.3
ZNF121 (zinc finger protein 121),2,-1.66,-8.7,2.11
ZNF121 (zinc finger protein 121),3,0.872,9.11,7.15
"REV3L (REV3 like, DNA directed polymerase zeta catalytic subunit)",1,3.2,25.5,13.7
"REV3L (REV3 like, DNA directed polymerase zeta catalytic subunit)",2,0.264,4.82,6.52
"REV3L (REV3 like, DNA directed polymerase zeta catalytic subunit)",3,0.00349,2.99,5.14
"PSMC6 (proteasome 26S subunit, ATPase 6)",1,6.82 (active),51,22.5
"PSMC6 (proteasome 26S subunit, ATPase 6)",2,2.07,17.5,11.4
"PSMC6 (proteasome 26S subunit, ATPase 6)",3,1.22,11.6,7.99
TCF3 (transcription factor 3),1,4.36,33.6,17.5
TCF3 (transcription factor 3),2,2.57,21,12.2
TCF3 (transcription factor 3),3,-0.797,-2.64,3.27
CREB3L1 (cAMP responsive element binding protein 3 like 1),1,-0.712,-2.04,3.71
CREB3L1 (cAMP responsive element binding protein 3 like 1),2,1.3,12.1,10.2
CREB3L1 (cAMP responsive element binding protein 3 like 1),3,-0.993,-4.02,3.8
ING3 (inhibitor of growth family member 3),1,0.5,6.48,6.29
ING3 (inhibitor of growth family member 3),2,0.2,4.37,5.86
ING3 (inhibitor of growth family member 3),3,0.434,6.02,8.69
RXFP1 (relaxin family peptide receptor 1),1,-0.642,-1.55,5.29
RXFP1 (relaxin family peptide receptor 1),2,-0.85,-3.01,3.46
RXFP1 (relaxin family peptide receptor 1),3,-0.078,2.42,4.01
DGKH (diacylglycerol kinase eta),1,7.66 (active),56.8,23.3
DGKH (diacylglycerol kinase eta),2,1.49,13.5,10.1
DGKH (diacylglycerol kinase eta),3,-0.496,-0.522,3.51
